From PMC9922823
No constants are given. Whether binding was seen depends on the method and setting. Binding seen in cells or lysates may run through a third protein. Some binding calls cover weakened binding; strength is not graded here. Where a sequence is shown, tags or fusion partners need not be part of it. Values belong to the molecule of their own block, whether it stands above or below them.

Chains of the proteins cited; added tags and fusions are not shown.
UniProt Q01939: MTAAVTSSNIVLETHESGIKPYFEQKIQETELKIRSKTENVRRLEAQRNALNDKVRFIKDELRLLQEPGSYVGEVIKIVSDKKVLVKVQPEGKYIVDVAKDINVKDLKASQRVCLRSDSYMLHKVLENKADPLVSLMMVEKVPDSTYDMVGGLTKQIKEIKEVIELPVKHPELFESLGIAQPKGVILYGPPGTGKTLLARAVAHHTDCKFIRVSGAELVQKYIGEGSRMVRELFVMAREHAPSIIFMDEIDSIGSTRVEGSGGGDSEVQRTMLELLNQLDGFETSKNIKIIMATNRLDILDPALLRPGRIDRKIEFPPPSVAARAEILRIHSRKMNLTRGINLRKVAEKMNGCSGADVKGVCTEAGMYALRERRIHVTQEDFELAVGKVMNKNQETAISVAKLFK

Tests used:
[1] = biological target: T1, FLAG-tagged Rpt1 (S. cerevisiae) (UniProt P33299); assay: pull-down; FLAG-Rpt1 as bait from the E. coli coexpression system (wildtype and rpt5-Δ5); anti-FLAG M2-agarose; 5% native-PAGE and immunoblotting
T1 sequence: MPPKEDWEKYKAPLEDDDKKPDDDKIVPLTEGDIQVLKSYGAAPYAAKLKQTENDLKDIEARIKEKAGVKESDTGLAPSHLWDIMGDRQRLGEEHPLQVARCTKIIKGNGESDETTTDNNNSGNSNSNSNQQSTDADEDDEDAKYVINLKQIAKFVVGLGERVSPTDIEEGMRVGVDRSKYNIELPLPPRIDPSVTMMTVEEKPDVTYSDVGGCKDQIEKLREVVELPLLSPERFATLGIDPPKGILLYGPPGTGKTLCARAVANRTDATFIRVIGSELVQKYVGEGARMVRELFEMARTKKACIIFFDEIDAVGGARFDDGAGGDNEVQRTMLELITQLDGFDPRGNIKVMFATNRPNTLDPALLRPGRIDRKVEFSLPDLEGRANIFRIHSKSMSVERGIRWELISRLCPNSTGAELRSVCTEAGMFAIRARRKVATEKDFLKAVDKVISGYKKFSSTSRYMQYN

[2] = biological target: T2, Rpn11 harboring a TeV-ProA affinity tag (S. cerevisiae), P43588; assay: pull-down; Rpn11 with TeV-ProA tag as bait from yeast lysate on IgG resin, Hepes buffers with NP-40, eluted with tobacco etch virus protease; native-PAGE and SDS-PAGE with immunoblotting; hsm3Δ cells (also nas2Δ and hsm3Δnas2Δ); settings: remark: other sources report otherwise
T2 chain: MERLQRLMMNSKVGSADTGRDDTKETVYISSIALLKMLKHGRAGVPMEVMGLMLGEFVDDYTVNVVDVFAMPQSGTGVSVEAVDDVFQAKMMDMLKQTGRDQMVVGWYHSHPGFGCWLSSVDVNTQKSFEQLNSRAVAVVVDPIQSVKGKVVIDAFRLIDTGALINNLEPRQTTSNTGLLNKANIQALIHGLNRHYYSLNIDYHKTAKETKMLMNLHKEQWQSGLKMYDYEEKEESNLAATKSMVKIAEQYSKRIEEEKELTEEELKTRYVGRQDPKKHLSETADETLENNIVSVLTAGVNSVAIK

[3] = biological target: T3, 3xFLAG-tagged Nas2 (S. cerevisiae), P40555; assay: pull-down; Nas2-3xFLAG as bait from hsm3Δ yeast lysate, Hepes buffers; native-PAGE and immunoblotting for Rpn8; settings: remark: other sources report otherwise
T3 chain: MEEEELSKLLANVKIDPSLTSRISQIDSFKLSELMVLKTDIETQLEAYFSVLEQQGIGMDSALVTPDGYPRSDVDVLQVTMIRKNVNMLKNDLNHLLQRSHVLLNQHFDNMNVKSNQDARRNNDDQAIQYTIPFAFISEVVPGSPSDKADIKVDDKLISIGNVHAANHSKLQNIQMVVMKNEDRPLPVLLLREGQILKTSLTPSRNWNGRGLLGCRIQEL

[4] = biological target: T4, His6-tagged Rpt3 (S. cerevisiae), P33298; assay: pull-down; His6-Rpt3 as bait from the E. coli coexpression system (wildtype and rpt5-Δ5); TALON resin; 5% native-PAGE and immunoblotting; settings: remark: other sources report otherwise
T4 chain: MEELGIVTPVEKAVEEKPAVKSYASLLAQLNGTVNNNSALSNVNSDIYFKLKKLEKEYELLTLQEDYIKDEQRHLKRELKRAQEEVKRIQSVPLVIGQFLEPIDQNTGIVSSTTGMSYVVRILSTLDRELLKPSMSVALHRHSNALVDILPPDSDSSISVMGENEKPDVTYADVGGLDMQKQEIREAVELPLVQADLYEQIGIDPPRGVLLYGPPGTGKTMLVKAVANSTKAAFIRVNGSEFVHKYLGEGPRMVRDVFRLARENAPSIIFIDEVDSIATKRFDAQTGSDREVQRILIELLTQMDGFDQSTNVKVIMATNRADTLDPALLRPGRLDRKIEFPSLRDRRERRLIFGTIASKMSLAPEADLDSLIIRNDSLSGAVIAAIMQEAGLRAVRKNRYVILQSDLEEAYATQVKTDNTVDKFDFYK

B2: Rpn8, Q08723 1-338 (protein)
chain: MSLQHEKVTIAPLVLLSALDHYERTQTKENKRCVGVILGDANSSTIRVTNSFALPFEEDEKNSDVWFLDHNYIENMNEMCKKINAKEKLIGWYHSGPKLRASDLKINELFKKYTQNNPLLLIVDVKQQGVGLPTDAYVAIEQVKDDGTSTEKTFLHLPCTIEAEEAEEIGVEHLLRDVRDQAAGGLSIRLTNQLKSLKGLQSKLKDVVEYLDKVINKELPINHTILGKLQDVFNLLPNLGTPDDDEIDVENHDRINISNNLQKALTVKTNDELMVIYISNLVRSIIAFDDLIENKIQNKKIQEQRVKDKQSKVSDDSESESGDKEATAPLIQRKNKKN
binding [3]: binds

B3: Nas2, P40555 1-220 (protein)
chain: MEEEELSKLLANVKIDPSLTSRISQIDSFKLSELMVLKTDIETQLEAYFSVLEQQGIGMDSALVTPDGYPRSDVDVLQVTMIRKNVNMLKNDLNHLLQRSHVLLNQHFDNMNVKSNQDARRNNDDQAIQYTIPFAFISEVVPGSPSDKADIKVDDKLISIGNVHAANHSKLQNIQMVVMKNEDRPLPVLLLREGQILKTSLTPSRNWNGRGLLGCRIQEL
binding [4]: binds | binding [2]: binds

Next, values leading:

binding [1]: binds
Molecule: Rpt6 (from UniProt Q01939 1-405)

binding [2]: binds
B1: Rpn12, P32496 1-274 (protein)
chain: MPSLAELTKSLSIAFENGDYAACEKLLPPIKIELIKNNLLIPDLSIQNDIYLNDLMITKRILEVGALASIQTFNFDSFENYFNQLKPYYFSNNHKLSESDKKSKLISLYLLNLLSQNNTTKFHSELQYLDKHIKNLEDDSLLSYPIKLDRWLMEGSYQKAWDLLQSGSQNISEFDSFTDILKSAIRDEIAKNTELSYDFLPLSNIKALLFFNNEKETEKFALERNWPIVNSKVYFNNQSKEKADYEDEMMHEEDQKTNIIEKAMDYAISIENIV
